Read-outs that look alike come from different tables or passages of the source.
Test system: Wistar rats
Details: lasered eye, day 0-14

**Q.** `CCCN1CCC(c2cccc(S(C)(=O)=O)c2)CC1` [Pridopidine] was tested. Which “Area under curve (AUC) of IOP, total area” value (shortened to “Area under curve (AUC)”) (3 mg/kg daily oral) did it give?
**A.** 255

**Q.** What about the “Area under curve (AUC)” value (30 mg/kg daily oral) of the same compound?
**A.** 289

**Q.** And the “Area under curve (AUC)” value (60 mg/kg daily oral)?
**A.** 295

— paper PMC8578336, “Neuroprotection of retinal ganglion cells by the sigma-1 receptor agonist pridopidine in models of experimental glaucoma” (Scientific Reports, 2021)
